This note sets out measurements from paper doi:10.1101/2021.10.01.462460.

Chains of the proteins cited; added tags and fusions are not shown. Lines headed by an entry give the natural chain unless they say otherwise; changes in a name come on top.
UniProt Q9Y572: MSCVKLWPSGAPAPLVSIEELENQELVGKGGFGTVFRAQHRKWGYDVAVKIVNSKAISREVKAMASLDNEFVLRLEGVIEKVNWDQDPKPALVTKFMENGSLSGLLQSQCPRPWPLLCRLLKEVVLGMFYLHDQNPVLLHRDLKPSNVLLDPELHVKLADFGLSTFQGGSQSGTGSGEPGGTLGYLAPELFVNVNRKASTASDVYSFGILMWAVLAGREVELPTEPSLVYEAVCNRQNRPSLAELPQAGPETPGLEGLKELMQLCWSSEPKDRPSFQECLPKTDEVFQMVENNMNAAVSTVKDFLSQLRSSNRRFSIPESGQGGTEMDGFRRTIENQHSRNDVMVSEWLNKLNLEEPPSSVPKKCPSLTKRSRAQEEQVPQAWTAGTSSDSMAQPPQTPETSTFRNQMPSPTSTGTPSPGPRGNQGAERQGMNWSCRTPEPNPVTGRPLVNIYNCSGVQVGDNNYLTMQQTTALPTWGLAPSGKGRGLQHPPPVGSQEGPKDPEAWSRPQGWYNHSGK
UniProt Q96EP0: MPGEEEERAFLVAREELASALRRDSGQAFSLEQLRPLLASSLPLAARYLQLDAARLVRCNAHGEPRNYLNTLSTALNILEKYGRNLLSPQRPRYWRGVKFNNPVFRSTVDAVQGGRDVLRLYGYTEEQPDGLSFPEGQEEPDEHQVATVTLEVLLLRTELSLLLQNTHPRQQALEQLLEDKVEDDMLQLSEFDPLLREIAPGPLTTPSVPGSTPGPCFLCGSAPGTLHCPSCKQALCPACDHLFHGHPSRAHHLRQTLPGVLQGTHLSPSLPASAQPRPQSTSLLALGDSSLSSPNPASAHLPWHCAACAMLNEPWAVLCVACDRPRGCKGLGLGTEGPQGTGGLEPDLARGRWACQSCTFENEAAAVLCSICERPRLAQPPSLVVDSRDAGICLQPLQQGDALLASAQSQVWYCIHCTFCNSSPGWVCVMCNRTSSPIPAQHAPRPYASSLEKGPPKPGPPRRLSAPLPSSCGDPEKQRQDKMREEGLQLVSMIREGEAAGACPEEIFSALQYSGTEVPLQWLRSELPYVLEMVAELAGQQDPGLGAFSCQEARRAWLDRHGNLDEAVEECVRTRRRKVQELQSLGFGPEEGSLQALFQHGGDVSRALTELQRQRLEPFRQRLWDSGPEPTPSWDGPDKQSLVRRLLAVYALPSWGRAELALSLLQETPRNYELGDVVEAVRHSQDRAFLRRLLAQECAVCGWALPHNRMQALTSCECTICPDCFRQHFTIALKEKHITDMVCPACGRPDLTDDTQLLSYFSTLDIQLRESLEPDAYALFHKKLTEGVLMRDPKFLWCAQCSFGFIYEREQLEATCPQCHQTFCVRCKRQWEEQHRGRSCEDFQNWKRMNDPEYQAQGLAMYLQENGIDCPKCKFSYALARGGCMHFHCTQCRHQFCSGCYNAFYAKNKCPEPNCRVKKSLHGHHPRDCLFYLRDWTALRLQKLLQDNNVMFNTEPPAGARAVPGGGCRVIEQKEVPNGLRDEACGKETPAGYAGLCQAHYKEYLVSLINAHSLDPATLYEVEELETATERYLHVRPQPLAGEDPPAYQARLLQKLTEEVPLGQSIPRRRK
UniProt Q96BN8: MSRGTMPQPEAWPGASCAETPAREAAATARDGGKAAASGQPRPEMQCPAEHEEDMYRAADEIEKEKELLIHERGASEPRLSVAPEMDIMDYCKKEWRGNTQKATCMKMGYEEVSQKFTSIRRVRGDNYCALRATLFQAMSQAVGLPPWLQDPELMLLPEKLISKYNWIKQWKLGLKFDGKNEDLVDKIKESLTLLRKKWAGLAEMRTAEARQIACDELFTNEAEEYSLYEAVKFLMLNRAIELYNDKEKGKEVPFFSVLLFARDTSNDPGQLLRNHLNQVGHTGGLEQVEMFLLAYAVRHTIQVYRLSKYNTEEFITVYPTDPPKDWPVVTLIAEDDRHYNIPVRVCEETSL

No constants are given. Whether binding was seen depends on the method and setting. In cells and extracts the contact can be indirect. Some results given as binding are weak or reduced against the parent protein; the word gives no strength. Where a sequence is shown, tags or fusion partners need not be part of it.

The target of assay [1] is T1, FLAG-tagged wild-type (WT) ZBP1 (Z-DNA-binding protein 1) (human) (UniProt Q9H171).
T1 sequence: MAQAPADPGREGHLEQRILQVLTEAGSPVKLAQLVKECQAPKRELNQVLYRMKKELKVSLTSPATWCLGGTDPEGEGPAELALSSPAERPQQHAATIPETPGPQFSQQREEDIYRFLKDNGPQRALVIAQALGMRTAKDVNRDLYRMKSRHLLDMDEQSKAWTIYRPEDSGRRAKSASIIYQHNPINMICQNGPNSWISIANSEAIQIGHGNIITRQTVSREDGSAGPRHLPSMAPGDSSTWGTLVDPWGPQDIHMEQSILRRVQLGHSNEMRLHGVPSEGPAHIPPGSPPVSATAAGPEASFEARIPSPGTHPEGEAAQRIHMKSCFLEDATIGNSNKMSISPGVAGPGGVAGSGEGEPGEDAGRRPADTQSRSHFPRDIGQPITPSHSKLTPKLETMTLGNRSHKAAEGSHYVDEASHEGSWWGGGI
Description: co-IP.

Assay [2] deals with T2, FLAG-tagged wild-type (WT) ZBP1 (Z-DNA-binding protein 1) (human), Q9H171.
T2 chain: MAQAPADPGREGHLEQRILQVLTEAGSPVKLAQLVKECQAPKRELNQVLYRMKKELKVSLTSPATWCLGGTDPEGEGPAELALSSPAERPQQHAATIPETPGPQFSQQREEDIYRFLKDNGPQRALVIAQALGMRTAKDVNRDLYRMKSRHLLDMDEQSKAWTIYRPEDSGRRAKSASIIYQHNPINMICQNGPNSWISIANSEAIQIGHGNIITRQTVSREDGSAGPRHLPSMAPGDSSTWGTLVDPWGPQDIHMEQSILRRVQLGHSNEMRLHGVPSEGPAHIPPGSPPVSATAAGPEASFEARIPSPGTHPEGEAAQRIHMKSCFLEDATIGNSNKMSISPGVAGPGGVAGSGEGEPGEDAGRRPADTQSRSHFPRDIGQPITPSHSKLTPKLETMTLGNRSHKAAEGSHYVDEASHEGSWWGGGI
Description: co-IP. To be noted: remark: other sources report otherwise.

With RIPK3 (from UniProt Q9Y572 1-518), the binding result in assay [1] is given as “binds”.

For the molecule “phosphorylated RIPK3 (from UniProt Q9Y572 1-518)”, the binding result in assay [1] is recorded as “binds”.

For the molecule “LUBAC (HOIP, HOIL-1, SHARPIN) (from UniProt Q96EP0 1-1072; Q9BYM8 1-510; Q9H0F6 1-387) (complex)”, the binding result in assay [1] is recorded as “binds”.

Consider “OTULIN (from UniProt Q96BN8 1-352) (enzyme)”, for which the binding result in assay [1] is on record as “binds”.

B1: RIPK1, Q13546 1-671 (protein)
chain: MQPDMSLNVIKMKSSDFLESAELDSGGFGKVSLCFHRTQGLMIMKTVYKGPNCIEHNEALLEEAKMMNRLRHSRVVKLLGVIIEEGKYSLVMEYMEKGNLMHVLKAEMSTPLSVKGRIILEIIEGMCYLHGKGVIHKDLKPENILVDNDFHIKIADLGLASFKMWSKLNNEEHNELREVDGTAKKNGGTLYYMAPEHLNDVNAKPTEKSDVYSFAVVLWAIFANKEPYENAICEQQLIMCIKSGNRPDVDDITEYCPREIISLMKLCWEANPEARPTFPGIEEKFRPFYLSQLEESVEEDVKSLKKEYSNENAVVKRMQSLQLDCVAVPSSRSNSATEQPGSLHSSQGLGMGPVEESWFAPSLEHPQEENEPSLQSKLQDEANYHLYGSRMDRQTKQQPRQNVAYNREEERRRRVSHDPFAQQRPYENFQNTEGKGTAYSSAASHGNAVHQPSGLTSQPQVLYQNNGLYSSHGFGTRPLDPGTAGPRVWYRPIPSHMPSLHNIPVPETNYLGNTPTMPFSSLPPTDESIKYTIYNSTGIQIGAYNYMEIGGTSSSLLDSTNTNFKEEPAAKYQAIFDNTTSLTDKHLDPIRENLGKHWKNCARKLGFTQSQIDEIDHDYERDGLKEKVYQMLQKWVMREGIKGATVGKLAQALHQCSRIDLLSSLIYVSQN
With B1, the binding result in assay [2] is “binds”.

B2: TAK1 (enzyme, UniProt O43318 1-606)
chain: MSTASAASSSSSSSAGEMIEAPSQVLNFEEIDYKEIEVEEVVGRGAFGVVCKAKWRAKDVAIKQIESESERKAFIVELRQLSRVNHPNIVKLYGACLNPVCLVMEYAEGGSLYNVLHGAEPLPYYTAAHAMSWCLQCSQGVAYLHSMQPKALIHRDLKPPNLLLVAGGTVLKICDFGTACDIQTHMTNNKGSAAWMAPEVFEGSNYSEKCDVFSWGIILWEVITRRKPFDEIGGPAFRIMWAVHNGTRPPLIKNLPKPIESLMTRCWSKDPSQRPSMEEIVKIMTHLMRYFPGADEPLQYPCQYSDEGQSNSATSTGSFMDIASTNTSNKSDTNMEQVPATNDTIKRLESKLLKNQAKQQSESGRLSLGASRGSSVESLPPTSEGKRMSADMSEIEARIAATTAYSKPKRGHRKTASFGNILDVPEIVISGNGQPRRRSIQDLTVTGTEPGQVSSRSSSPSVRMITTSGPTSEKPTRSHPWTPDDSTDTNGSDNSIPMAYLTLDHQLQPLAPCPNSKESMAVFEQHCKMAQEYMKVQTEIALLLQRKQELVAELDQDEKDQQNTSRLVQEHKKLLDENKSLSTYYQQCKKQLEVIRSQQQKRQGTS
Consider B2, for which the binding result in assay [1] is “binds”.

B3: IKKβ (enzyme, UniProt O14920 1-756)
chain: MSWSPSLTTQTCGAWEMKERLGTGGFGNVIRWHNQETGEQIAIKQCRQELSPRNRERWCLEIQIMRRLTHPNVVAARDVPEGMQNLAPNDLPLLAMEYCQGGDLRKYLNQFENCCGLREGAILTLLSDIASALRYLHENRIIHRDLKPENIVLQQGEQRLIHKIIDLGYAKELDQGSLCTSFVGTLQYLAPELLEQQKYTVTVDYWSFGTLAFECITGFRPFLPNWQPVQWHSKVRQKSEVDIVVSEDLNGTVKFSSSLPYPNNLNSVLAERLEKWLQLMLMWHPRQRGTDPTYGPNGCFKALDDILNLKLVHILNMVTGTIHTYPVTEDESLQSLKARIQQDTGIPEEDQELLQEAGLALIPDKPATQCISDGKLNEGHTLDMDLVFLFDNSKITYETQISPRPQPESVSCILQEPKRNLAFFQLRKVWGQVWHSIQTLKEDCNRLQQGQRAAMMNLLRNNSCLSKMKNSMASMSQQLKAKLDFFKTSIQIDLEKYSEQTEFGITSDKLLLAWREMEQAVELCGRENEVKLLVERMMALQTDIVDLQRSPMGRKQGGTLDDLEEQARELYRRLREKPRDQRTEGDSQEMVRLLLQAIQSFEKKVRVIYTQLSKTVVCKQKALELLPKVEEVVSLMNEDEKTVVRLQEKRQKELWNLLKIACSKVRGPVSGSPDSMNASRLSQPGQLMSQPSTASNSLPEPAKKSEELVAEAHNLCTLLENAIQDTVREQDQSFTALDWSWLQTEEEEHSCLEQAS
In the case of B3, the binding entry in assay [1] is “binds”.
